Reference: PubChem BioAssay AID1671195 (Yale University, 2021)
In all, the deposit lists about 22,000 reagents; shown is an unselected part. Over the whole deposit, about 1,510 (6.9%) are marked active. 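Active includes knockdowns raising or lowering LDL uptake; positive z-scores mean more uptake, negative mean less.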

- Test: 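Genes whose knockdown alters LDL uptake in liver cancer cells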 (primary screen)
- System: human Huh7 hepatoma cells
- Reagents: siRNA pool against human genes, 18 nM
- Time to read-out: about 2 to 2.5 days of knockdown, then 8 h LDL uptake
- Conditions: DiI-labelled LDL at 30 µg/ml for 8 h, in lipoprotein-deficient serum medium
- Measured: 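Per-cell DiI-LDL intensity by automated imaging; well means scaled to the plate median and given as a robust z-score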
- Reading the numbers: robust z-score: higher = more LDL uptake after knockdown
- Call rule: 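Active when two or more replicates show a robust z-score above 2 or below -2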

| robust z-score, replicate 1 | robust z-score, replicate 2 | robust z-score, replicate 3 | Outcome | Gene | PubChem SID |
| --- | --- | --- | --- | --- | --- |
| 0.517 | 1.72 | 0.279 | inactive | THAP5 (THAP domain containing 5) | SID442887798 |
| -1.14 | -1.77 | -1.27 | inactive | MRPS18A (mitochondrial ribosomal protein S18A) | SID442903794 |
| -1.58 | -0.295 | 0.0618 | inactive | PLCD4 (phospholipase C delta 4) | SID442899337 |
| 2.18 | 1.33 | 1.75 | inactive | FXN (frataxin) | SID442884963 |
| -0.701 | -1.9 | -1.62 | inactive | SDC1 (syndecan 1) | SID442903841 |
| 0.488 | 0.514 | 0.225 | inactive | IGHV1OR15-9 (immunoglobulin heavy variable 1/OR15-9 (non-functional)) | SID442890504 |
| -0.552 | -0.754 | -0.807 | inactive | PRCD (photoreceptor disc component) | SID442900048 |
| 2.16 | 1.9 | 1.71 | inactive | LOC284134 (retired record) | SID442884717 |
| 0.502 | 0.798 | 0.685 | inactive | MANBAL (mannosidase beta like) | SID442888786 |
| 0.628 | 1.94 | 2.42 | active | LOC401860 (retired record) | SID442884213 |
| 0.915 | 1.36 | 2.07 | inactive | FAM120B (family with sequence similarity 120 member B) | SID442885595 |
| 0.032 | 0.397 | -0.173 | inactive | NOX4 (NADPH oxidase 4) | SID442893122 |
| -0.355 | -1.02 | -0.391 | inactive | CST2 (cystatin SA) | SID442899200 |
| 0.647 | 0.518 | 0.734 | inactive | SSTR2 (somatostatin receptor 2) | SID442888966 |
| 2.34 | 3.72 | 1.21 | active | TMEM120B (transmembrane protein 120B) | SID442883708 |
| -1.23 | -1.21 | -1.34 | inactive | LOC441663 (retired record) | SID442903270 |
| 0.719 | 0.979 | 0.841 | inactive | MACC1 (MET transcriptional regulator MACC1) | SID442887760 |
| 0.975 | 0.0562 | 0.1 | inactive | DAB1 (DAB adaptor protein 1) | SID442890724 |
| 0.301 | -0.488 | 1.22 | inactive | CXCR6 (C-X-C motif chemokine receptor 6) | SID442891006 |
| 1.15 | 1.62 | 0.88 | inactive | ZNF229 (zinc finger protein 229) | SID442886255 |
| -0.0723 | 0.241 | -0.278 | inactive | PDIA4 (protein disulfide isomerase family A member 4) | SID442894192 |
| 3.86 | 1.29 | 1.34 | active | ASS1 (argininosuccinate synthase 1) | SID442883908 |
| -0.734 | -0.309 | -1.05 | inactive | GET1 (guided entry of tail-anchored proteins factor 1) | SID442899997 |
| 0.396 | 0.173 | -0.0111 | inactive | ELK4 (ETS transcription factor ELK4) | SID442892290 |
| -0.498 | -1.49 | -1.43 | inactive | BCL3 (BCL3 transcription coactivator) | SID442902737 |
| -0.235 | -0.617 | -0.216 | inactive | PRDM2 (PR/SET domain 2) | SID442897185 |
| -0.627 | -0.77 | -1.4 | inactive | SUPT4H1 (SPT4 homolog, DSIF elongation factor subunit) | SID442901635 |
| 1.15 | 1.49 | 3.88 | inactive | FBN1 (fibrillin 1) | SID442884624 |
| -1.09 | -1.31 | -0.902 | inactive | LOC388903 (retired record) | SID442902536 |
| -0.821 | -0.92 | -0.655 | inactive | NTSR2 (neurotensin receptor 2) | SID442900725 |
| 0.194 | 0.464 | -0.104 | inactive | DEPDC4 (DEP domain containing 4) | SID442892299 |
| -0.103 | -0.308 | -0.167 | inactive | GAS2L2 (growth arrest specific 2 like 2) | SID442895668 |
| 1.84 | 1.83 | 1.4 | inactive | CCDC90B (coiled-coil domain containing 90B) | SID442885077 |
| 0.173 | -0.711 | 0.559 | inactive | FTHL17 (ferritin heavy chain like 17) | SID442893823 |
| 0.172 | 0.695 | 0.607 | inactive | SYNGR2 (synaptogyrin 2) | SID442889905 |
| 1.06 | -0.786 | 2.39 | inactive | MNS1 (meiosis specific nuclear structural 1) | SID442887560 |
| 1.07 | 1.49 | 1.2 | inactive | MECR (mitochondrial trans-2-enoyl-CoA reductase) | SID442886146 |
| 1.28 | 0.833 | 0.779 | inactive | LOC440703 (retired record) | SID442887197 |
| -1.12 | -0.464 | -1.69 | inactive | TSSC4 (tumor suppressing subtransferable candidate 4) | SID442902491 |
| -1.04 | -0.465 | -0.621 | inactive | RPGR (retinitis pigmentosa GTPase regulator) | SID442900083 |
| 0.844 | -1.27 | 0.639 | inactive | NDUFAF4 (NADH:ubiquinone oxidoreductase complex assembly factor 4) | SID442893253 |
| 1.44 | 1.27 | 0.373 | inactive | DUX4L8 (double homeobox 4 like 8 (pseudogene)) | SID442886937 |
| -0.555 | -0.366 | -0.457 | inactive | AADACL2 (arylacetamide deacetylase like 2) | SID442898087 |
| -0.0166 | -0.0578 | -0.424 | inactive | ARMC10 (armadillo repeat containing 10) | SID442895409 |
| 0.0291 | -0.669 | 0.825 | inactive | HILPDA (hypoxia inducible lipid droplet associated) | SID442893343 |
| -0.733 | -0.124 | -0.374 | inactive | CD47 (CD47 molecule) | SID442897663 |
| -0.381 | -0.0235 | -0.148 | inactive | LOC440592 (retired record) | SID442895586 |
| 0.848 | 1.5 | 1.47 | inactive | POMZP3 (POM121 and ZP3 fusion) | SID442886083 |
| 3.33 | 2.94 | 4.45 | active | LOC440817 (retired record) | SID442883261 |
| -0.999 | -0.424 | -0.164 | inactive | TM4SF20 (transmembrane 4 L six family member 20) | SID442898712 |
| -0.724 | -0.482 | -0.542 | inactive | MIR570HG (MIR570 host gene) | SID442899142 |
| -1.02 | -1.06 | -1.4 | inactive | CTCFL (CCCTC-binding factor like) | SID442902827 |
| -0.746 | -1.18 | -1.43 | inactive | ROCK2 (Rho associated coiled-coil containing protein kinase 2) | SID442902642 |
| 0.624 | 0.453 | 0.558 | inactive | CSTL1 (cystatin like 1) | SID442889529 |
| -0.142 | 0.0509 | 0.00832 | inactive | MYMK (myomaker, myoblast fusion factor) | SID442894111 |
| 1.63 | 1.08 | 0.749 | inactive | ZNF767P (zinc finger family member 767, pseudogene) | SID442886470 |
| -1.63 | -1.13 | -0.757 | inactive | LOC400740 (retired record) | SID442902909 |
| 0.377 | -0.32 | 1.54 | inactive | VGLL1 (vestigial like family member 1) | SID442889614 |
| -0.151 | -0.925 | -0.0813 | inactive | KHDRBS3 | SID442897440 |
| -0.57 | -0.736 | -0.451 | inactive | ADAMTS14 (ADAM metallopeptidase with thrombospondin type 1 motif 14) | SID442899164 |
| 0.0239 | -0.429 | -0.39 | inactive | LOC440197 (retired record) | SID442896369 |
| 0.933 | 0.228 | 0.0321 | inactive | KIF5C (kinesin family member 5C) | SID442890576 |
| 3.5 | 4.24 | 4.42 | active | LGALS9 (galectin 9) | SID442883191 |
| -0.296 | -0.81 | -0.586 | inactive | PARP11 (poly(ADP-ribose) polymerase family member 11) | SID442898990 |
| 0.899 | 0.372 | 0.48 | inactive | ADA2 (adenosine deaminase 2) | SID442889288 |
| -0.44 | 0.393 | -1.03 | inactive | BEX3 (brain expressed X-linked 3) | SID442897213 |
| -0.31 | 0.0863 | -0.247 | inactive | CD48 (CD48 molecule) | SID442895312 |
| 0.935 | 0.881 | 0.386 | inactive | LEKR1 (leucine, glutamate and lysine rich 1) | SID442888356 |
